Reference: patent publication US4547489A (Ortho Pharmaceutical Corporation, priority 1984, dated 1985)

experiment: general procedure: solution-phase peptide synthesis; DCC/HOBt; isobutyl chloroformate/N-methylmorpholine mixed anhydride; diphenylpho; conditions: late stage modification step

Substance	step yield [%]
Aoc-Arg(Tos)-Lys(Z)-Asp(OBzl)-Val-Tyr(Bzl)	96
Aoc-Arg(Tos)-Lys(Z)-Asp(OBzl)-Val-Tyr(Bzl)-Gly	93
FMOC-Lys-(HCl)-Asp-Val-Tyr-OBzl	100
HCl Arg(Tos)-Lys(Z)-Asp(OBzl)-Val-Tyr(Bzl)	100
HCl Arg(Tos)-Lys(Z)-Asp(OBzl)-Val-Tyr(Bzl)-Gly	100
